For this assay, the target named is P21 (RAC1) activated kinase 2 (human (endogenous in CaOV3 and SKOV3)) (UniProt Q13177). Briefly: co-IP; lysates (RIPA buffer with protease inhibitors) of untransfected and transfected CaOV3 and SKOV3 cells incubated with PAK2 antibody, SOX2 antibody or control IgG at 4°C overnight, Protein A/G PLUS-Agarose beads 2 h at 4°C, Western blot; also in cells overexpressing lncRNA RP11-499E18.1 (interaction markedly reduced against the NC group).

Amino acid sequences for entries named in this document (tags omitted).
UniProt Q13177: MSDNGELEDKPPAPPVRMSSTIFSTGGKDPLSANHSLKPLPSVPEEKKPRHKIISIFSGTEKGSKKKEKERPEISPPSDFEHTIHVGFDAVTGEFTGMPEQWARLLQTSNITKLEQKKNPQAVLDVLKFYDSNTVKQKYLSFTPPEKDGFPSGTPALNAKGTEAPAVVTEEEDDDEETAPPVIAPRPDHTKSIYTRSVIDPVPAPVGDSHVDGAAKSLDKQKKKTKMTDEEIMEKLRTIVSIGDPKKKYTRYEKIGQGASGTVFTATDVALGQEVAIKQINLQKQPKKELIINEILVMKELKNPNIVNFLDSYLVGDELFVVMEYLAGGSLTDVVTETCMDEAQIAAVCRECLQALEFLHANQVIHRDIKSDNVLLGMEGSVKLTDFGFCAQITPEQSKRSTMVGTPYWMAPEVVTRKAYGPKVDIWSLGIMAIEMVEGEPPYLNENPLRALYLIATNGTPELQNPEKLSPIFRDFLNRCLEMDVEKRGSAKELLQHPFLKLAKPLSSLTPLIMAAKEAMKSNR
UniProt P48431: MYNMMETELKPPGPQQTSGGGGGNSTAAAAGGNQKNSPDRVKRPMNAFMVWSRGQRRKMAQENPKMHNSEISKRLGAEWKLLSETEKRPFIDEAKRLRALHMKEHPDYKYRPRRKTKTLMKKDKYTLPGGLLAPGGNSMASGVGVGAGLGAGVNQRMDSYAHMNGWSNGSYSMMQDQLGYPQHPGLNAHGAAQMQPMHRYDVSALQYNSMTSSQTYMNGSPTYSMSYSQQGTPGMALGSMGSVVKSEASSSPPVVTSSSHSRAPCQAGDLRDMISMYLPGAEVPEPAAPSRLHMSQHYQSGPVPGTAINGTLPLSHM

These are yes or no findings as the source states them, for the method shown. Binding seen in cells or lysates may run through a third protein. Some binding calls cover weakened binding; strength is not graded here.

The results in this text go back to PMC8490721.

In the case of “SRY-box transcription factor 2 (from UniProt P48431 1-317)”, the binding result was “binds”.
